Experimental data reported in patent US12161728.
Positions count from the first letter of the chain named. No constants are given. Whether binding was seen depends on the method and setting. Binding seen in cells or lysates may run through a third protein. Some binding calls cover weakened binding; strength is not graded here.

The chains behind the UniProt entries cited, without tags or fusion partners.
UniProt Q921F2: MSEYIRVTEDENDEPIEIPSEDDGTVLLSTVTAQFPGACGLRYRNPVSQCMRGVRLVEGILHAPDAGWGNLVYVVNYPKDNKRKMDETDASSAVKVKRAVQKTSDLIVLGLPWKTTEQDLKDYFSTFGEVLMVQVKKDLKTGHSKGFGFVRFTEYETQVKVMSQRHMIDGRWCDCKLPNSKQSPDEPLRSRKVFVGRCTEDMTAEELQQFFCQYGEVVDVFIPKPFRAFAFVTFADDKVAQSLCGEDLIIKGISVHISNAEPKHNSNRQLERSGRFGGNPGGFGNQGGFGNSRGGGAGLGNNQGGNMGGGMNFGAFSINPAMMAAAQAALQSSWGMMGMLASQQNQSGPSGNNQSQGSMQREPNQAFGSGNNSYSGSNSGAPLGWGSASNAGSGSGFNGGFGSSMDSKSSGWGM

Key:
[1] = target: T1, mCherry-Cyclin F^S621G (UniProt P41002); experiment: co-immunoprecipitation, western blot
T1 sequence (looked up): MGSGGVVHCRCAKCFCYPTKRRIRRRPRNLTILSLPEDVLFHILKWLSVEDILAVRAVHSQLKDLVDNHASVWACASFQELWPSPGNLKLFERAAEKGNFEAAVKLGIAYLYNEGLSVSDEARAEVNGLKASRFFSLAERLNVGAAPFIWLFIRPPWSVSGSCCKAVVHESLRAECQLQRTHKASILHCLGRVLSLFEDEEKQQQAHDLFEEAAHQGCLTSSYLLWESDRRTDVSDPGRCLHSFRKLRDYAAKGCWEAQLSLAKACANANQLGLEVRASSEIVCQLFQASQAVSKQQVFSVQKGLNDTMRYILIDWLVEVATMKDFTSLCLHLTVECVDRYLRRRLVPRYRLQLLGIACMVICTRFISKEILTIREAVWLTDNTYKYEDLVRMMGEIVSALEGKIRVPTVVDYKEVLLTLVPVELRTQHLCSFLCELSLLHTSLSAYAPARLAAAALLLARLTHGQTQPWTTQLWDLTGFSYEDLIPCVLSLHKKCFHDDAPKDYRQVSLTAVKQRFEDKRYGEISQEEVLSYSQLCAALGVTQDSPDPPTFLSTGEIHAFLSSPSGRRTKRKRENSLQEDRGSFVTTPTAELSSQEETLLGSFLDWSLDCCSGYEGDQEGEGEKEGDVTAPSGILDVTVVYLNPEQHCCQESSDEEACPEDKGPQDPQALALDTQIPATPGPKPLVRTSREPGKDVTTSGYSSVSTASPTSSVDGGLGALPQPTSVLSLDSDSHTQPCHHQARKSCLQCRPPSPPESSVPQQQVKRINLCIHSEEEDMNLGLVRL

[2] = target: T2, mCherry-Cyclin F^WT (UniProt P41002); experiment: co-immunoprecipitation, western blot
T2 sequence (looked up): T1 sequence (looked up) with G621S

[3] = target: T2, mCherry-Cyclin F^WT; experiment: reverse co-immunoprecipitation in Neuro2a cells

Measured: binding

endogenous TDP-43 in Neuro2A cells (from UniProt Q921F2 1-414)
binds: all assays above
